AC50 data for 58 molecules are collected here from PubChem BioAssay AID1487 (National Center for Advancing Translational Sciences (NCATS), 2009).

The experiment is described as follows: qHTS Assay for Modulators of Lamin A Splicing. The settings on record: HeLa LMNA splicing GFP/RFP minigene ratio, 48 h. The essentials:
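S3 HeLa cells stably expressing lamin A-EGFP splicing minigene plus DsRed2, 600 cells/well, 48 h compound exposure at 37C. Laser-scanning cytometry; analysed as GFP (500-530 nm)/RFP (575-640 nm) total intensity ratio; 0.5% DMSO vehicle.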
On the technique in general: Quantitative high-throughput screening tests each substance at several concentrations.

The mark [1] stands for this setting: measured here: RFP viability control channel.
[2] abbreviates: measured here: GFP splicing reporter channel.

The list shows a part of the results. Shown are side measurements of this screen, not its main read-out; they come without a call. The list favours compounds with an active or inconclusive main result. The note in brackets gives the kind of curve behind each potency; many fits are weak.

For the molecule `CCC(C)Nc1ncnc2c1cnn2Cc1ccc(Cl)cc1` (stereo not given), the AC50 (in general, the concentration giving half of the maximal activity seen) under setting [1] is 35.5 µM [rising, single point].

In the case of `Cc1oc(-c2ccccc2Cl)nc1CN1CCCN(C(=O)c2ccco2)CC1`, under setting [1], the AC50 was 11.2 µM [falling, partial curve, poor fit].

On to `CCOc1ccc(C(=O)NC2CC3CCCC(C2)N3CC(C)C)cc1` (stereo not given), for which the half-maximal activity concentration (AC50) under setting [2] is 2.51 µM [falling, partial curve, poor fit].

In the case of `Cc1nc2cncnc2n(Cc2ccccc2Cl)c1=O`, under setting [2], the half-maximal activity concentration (AC50) was 25.1 µM [falling, partial curve, poor fit].

Consider `Cc1ccc(C)c(NC(=O)Cn2cc(C(=O)c3ccc(Cl)cc3)c(=O)c3ccc(C)nc32)c1`, for which, under setting [1], the AC50 was 0.0178 µM [falling, full curve].

As for `COc1ccc(N2C(=O)C3NN=C(C(=O)OCc4ccccc4)C3C2=O)cc1` (stereo not given), under setting [1], the AC50 is 5.62 µM [falling, full curve].

Regarding `Cc1ccc(Sc2sc(=O)n(C)c2S(=O)(=O)c2ccc(C)cc2)cc1`, the AC50 under setting [2] was 31.6 µM [rising, single point].

Consider `O=C(Cc1cccc2ccccc12)N/N=C/C=C/c1cccc([N+](=O)[O-])c1`, for which the AC50 under setting [1] was 22.4 µM [rising, single point].

With `OCCn1c(-c2ccccc2)csc1=Nc1ccccc1`, the AC50 was 12.6 µM [rising, partial curve] under setting [2] and 25.1 µM [rising, partial curve] under setting [1].

As to `COc1ccc(OC)c(NC(=O)Cn2cc(C=O)c3ccccc32)c1`, the AC50 was 0.178 µM [falling, full curve, poor fit] under setting [2] and 0.0355 µM [falling, full curve, poor fit] under setting [1].

For `CC/C(O)=C1\C(=O)CC(C)(C)CC1=Nc1ccccc1C`, the AC50 is, setting by setting: under setting [2], 12.6 µM [rising, partial curve, poor fit]; under setting [1], 17.8 µM [rising, partial curve, poor fit].

Regarding `O=C(Nc1ccc2c(c1)OCCO2)c1ccc(S(=O)(=O)N2CCCCC2)cc1`, the AC50 under setting [1] was 35.5 µM [rising, single point].

In the case of `Cc1ccc(C(=O)COC(=O)c2ccccc2NC(=O)c2ccccc2)cc1[N+](=O)[O-]`, under setting [1], the AC50 is 17.8 µM [rising, partial curve].

`O=c1[nH]c(=O)n([C@@H]2C[C@H](O)[C@H](CO)O2)cc1C(F)(F)F`: under setting [2], the AC50 is 0.02 µM [falling, full curve, poor fit].

Take `S=c1[nH]nc(C2CCCCC2)n1Cc1ccccc1`: under setting [1], the AC50 is 0.316 µM [falling, full curve, poor fit].

Take `COCCn1c(=O)c(-c2cn(C)c3ccccc23)nc2cnc(OCc3ccccc3)nc21`: the AC50 runs as follows: under setting [2], 20 µM [falling, partial curve]; under setting [1], 12.6 µM [falling, single point].

For `O=C(CCN1CCN(c2ccc(Cl)cc2)CC1)Nc1nccs1`, the AC50 under setting [1] was 10 µM [rising, partial curve].

Consider `Cn1c(N)c(C(=O)COc2ccc(Cl)cc2Cl)c(=O)n(C)c1=O`, for which the concentration at half-maximal activity (AC50) under setting [1] was 11.2 µM [rising, partial curve].

Take `Cc1cc(NC(=O)CCC(=O)N(c2ccccc2)C(C(=O)NC2CCCC2)c2ccccc2)no1` (stereo not given): the AC50 under setting [2] is 11.2 µM [falling, partial curve, poor fit].

With `Cc1nc2ccc(S(=O)(=O)NCC(=O)N3CCN(c4ccccc4)CC3)cc2s1`, the AC50 reads like this: under setting [2], 14.1 µM [rising, partial curve, poor fit]; under setting [1], 14.1 µM [rising, partial curve].

Take `c1ccc(-n2nnnc2NCCc2c[nH]c3ccccc23)cc1`: the concentration at half-maximal activity (AC50) under setting [1] is 31.6 µM [rising, single point].

Consider `O=C(CCSc1nc(-c2ccco2)cc(C(F)(F)F)n1)N1CCN(c2ccccn2)CC1`, for which the AC50 under setting [1] was 11.2 µM [rising, single point].

In the case of `O=C(OCc1cc(=O)n2nc(C3CC3)sc2n1)c1ccc(F)cc1`, the AC50 under setting [2] is 8.91 µM [falling, partial curve, poor fit].

`N#Cc1ccccc1-c1ccc2ncnc(NC3CC3)c2c1`: the AC50 under setting [2] is 15.8 µM [falling, single point].

Regarding `COC(=O)c1ccc(NC(=O)c2cc(S(=O)(=O)N3CCc4ccccc43)cn2C)cc1`, the AC50 reads like this: under setting [2], 10 µM [rising, partial curve, poor fit]; under setting [1], 14.1 µM [rising, partial curve].

Consider `N#Cc1ccccc1Cn1cc(C#N)c2ccccc21`, for which the AC50 under setting [2] is 35.5 µM [falling, single point].

On to `CCCCc1nnc(SCc2cc(=O)c3cc(C(=O)OCC)ccc3[nH]2)n1C`, for which, under setting [2], the AC50 is 0.0282 µM [rising, full curve, poor fit].

Regarding `COc1ccc(N/C(N)=N/c2nc(C)cc(C)n2)c(OC)c1`, the AC50 under setting [1] is 6.31 µM [falling, single point].

As for `O=C(NCc1cccnc1)C1CCN(Cc2cc3ccccc3n2Cc2cccc(Cl)c2)CC1`, the AC50 under setting [1] is 12.6 µM [rising, single point].

For the molecule `Cc1cc(=O)[nH]c(SCC(=O)/C=C2\N(C)c3ccccc3C2(C)C)n1`, the AC50 reads like this: under setting [2], 11.2 µM [rising, single point]; under setting [1], 22.4 µM [rising, single point].

For `Cc1cccc(OCCCCCn2ccnc2)c1C`, under setting [1], the AC50 was 17.8 µM [rising, single point].

As for `O=C(/C=C/c1ccccc1)NC(NC(=S)Nc1ccc(Cl)cc1)C(Cl)(Cl)Cl` (stereo not given), the AC50 by setting is: under setting [2], 20 µM [falling, single point]; under setting [1], 35.5 µM [falling, single point].

With `CN(C)/C=C(\c1cnc(Cl)s1)S(=O)(=O)c1ccccc1`, under setting [1], the AC50 was 5.62 µM [rising, single point].

On to `Cc1ccc(C2=C(c3ccc([N+](=O)[O-])cc3)C(=O)OC2)cc1C`, for which the AC50 under setting [1] is 35.5 µM [rising, single point].

On to `O=[N+]([O-])c1ccc(F)cc1OCc1nc(-c2cccs2)no1`, for which the AC50 under setting [2] is 0.794 µM [rising, full curve, poor fit].

Regarding `CN(C)c1nc(N)nc(/C(C#N)=C/C2CC3C=CC2C3)n1` (stereo not given), the concentration at half-maximal activity (AC50) under setting [2] is 10 µM [rising, partial curve].

Consider `Cc1cc(N2CCC(C)CC2)n2nc(C)c(-c3ccccc3)c2n1`, for which the AC50 was 20 µM [rising, partial curve] under setting [2] and 22.4 µM [rising, partial curve] under setting [1].

As to `CC(=O)c1cccc(NC(=O)NC2CCCc3ccccc32)c1` (stereo not given), the AC50 under setting [2] was 0.0501 µM [rising, full curve, poor fit].

Consider `Cc1ccc(-c2csc(NC(=O)c3ccc(C)o3)n2)cc1`, for which the AC50 was 35.5 µM [rising, single point] under setting [2] and 35.5 µM [rising, single point] under setting [1].

Consider `CCOC(=O)/C(=N\Nc1ccccc1Cl)N1CCN(Cc2ccccc2)CC1`, for which, under setting [1], the AC50 is 35.5 µM [rising, single point].

Consider `CCOC(=O)c1cc(-c2ccc(C)cc2)n(CCC(=O)N2CCN(c3ccccn3)CC2)c1C`, for which the AC50 under setting [2] is 35.5 µM [rising, single point] and the AC50 under setting [1] is 35.5 µM [rising, single point].

As for `CCc1nnc(N2CCN(c3ncnc4c3oc3ccccc34)CC2)s1`, under setting [1], the AC50 was 35.5 µM [rising, single point].

Take `Cc1cc(C)c(OCC(=O)Nc2cccc(NC(=O)c3ccco3)c2)c(Br)c1`: the half-maximal activity concentration (AC50) under setting [1] is 15.8 µM [rising, single point].

Regarding `S=C1SCN(Cc2ccccn2)CN1Cc1ccco1`, the AC50 is, setting by setting: under setting [2], 3.98 µM [falling, full curve]; under setting [1], 4.47 µM [falling, full curve].

On to `CCCc1nc2oc3c(N4CCNCC4)ncnc3c2c2c1CCCC2`, for which the half-maximal activity concentration (AC50) reads like this: under setting [2], 35.5 µM [falling, single point]; under setting [1], 35.5 µM [falling, partial curve, poor fit].

On to `COC(=O)c1ccccc1NC(=O)C1CCCN(S(=O)(=O)c2ccc(OC)cc2)C1` (stereo not given), for which the half-maximal activity concentration (AC50) under setting [1] was 35.5 µM [rising, single point].

On to `O=Cc1ccc(Oc2ncccn2)cc1`, for which the AC50 under setting [1] was 0.00398 µM [rising, full curve, poor fit].

Regarding `CCOc1ccccc1CNC(=O)c1cc2cc(S(=O)(=O)N3CCCCC3)ccc2n1C`, the AC50 under setting [2] was 0.501 µM [rising, single point].

For `CC(Sc1ccc(Cl)cc1)C(=O)Nc1ccccc1-c1ccccc1` (stereo not given), under setting [1], the AC50 is 31.6 µM [rising, single point].

`O=C1CC(SC(=Nc2ccccc2)Nc2ccccc2)C(=O)N1c1ccc(Cl)c(Cl)c1` (stereo not given): the half-maximal activity concentration (AC50) reads like this: under setting [2], 15.8 µM [rising, single point]; under setting [1], 22.4 µM [rising, single point].

With `CC(=O)Nc1ccc(NC(=O)CCNS(=O)(=O)c2cccc3nsnc23)cc1`, the AC50 under setting [2] was 20 µM [falling, partial curve, poor fit].

In the case of `CN(C(=O)c1c(Br)cnn1C)C12CC3CC(CC(C3)C1)C2`, the concentration at half-maximal activity (AC50) under setting [2] was 3.55 µM [rising, single point] and the AC50 under setting [1] was 3.55 µM [rising, full curve, poor fit].

In the case of `COc1cc(OC)c(-c2nnc(-c3ccc(OC)c(OC)c3OC)o2)cc1OC`, under setting [1], the concentration at half-maximal activity (AC50) was 17.8 µM [rising, single point].

As to `O=C(/C=C/c1ccc(Br)cc1)c1ccco1`, the half-maximal activity concentration (AC50) was 25.1 µM [falling, partial curve] under setting [2] and 22.4 µM [falling, single point] under setting [1].

For the molecule `O=C(Nc1cc(C(F)(F)F)ccc1Cl)C(NCc1ccccc1)c1ccccc1` (stereo not given), under setting [2], the AC50 is 35.5 µM [rising, single point].

`CCOC(=O)c1oc2cc(O)c(CC)cc2c(=O)c1-c1ccc2c(c1)OCCO2`: the AC50 under setting [1] is 20 µM [rising, partial curve, poor fit].

`CCOc1cccc(CC(=O)N2CCc3c([nH]c4ccccc34)C2c2ccc(F)cc2)c1OCC` (stereo not given): the AC50 under setting [2] was 0.0251 µM [rising, full curve].

In the case of `CC1CC(Nc2ccccc2)c2ccccc2N1C(=O)c1ccncc1` (stereo not given), the AC50 was 3.98 µM [falling, full curve] under setting [2] and 6.31 µM [falling, full curve] under setting [1].
